PubChem BioAssay AID504786 | Drosophila RNAi Screening Center, 2011

- Purpose: 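Positive regulators of HIF-driven reporter output in Drosophila cells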 (primary screen)
- Cell system: Drosophila S2 cells with a stable HIF luciferase reporter
- Knock-down reagent: long dsRNA against Drosophila genes, about 0.2 µg dsRNA per well of a 384-well plate
- Time to read-out: three days of knock-down, then 20 h of DFO before reading
- Treatment: desferrioxamine (DFO) at 100 µM, an iron chelator that mimics hypoxia, for 20 h
- Read-out: 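Firefly luciferase driven by the mouse ldh-a hypoxia-response element, measured after 20 h of 100 µM DFO; z-scores per plate, higher means more signal lost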
- Direction: z-score: higher = stronger loss of HIF reporter signal
The deposit covers about 21,000 reagents; this is an unselected part of those that have a named target and a result. 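Primary screen; positive scores mean lost reporter signal, so the sign may be inverted from the usual convention.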 A plus sign joins genes that one reagent is predicted to hit.

no.	target	amplicon	z-score, replicate 1	z-score, replicate 2	z-score, replicate 3	z-score, replicate 4
1	Bub3 (GeneID 43490)	DRSC14168	-0.2	0.2		
2	CNT2 (GeneID 35914)	DRSC07073	-0.3	-0.4		
3	CG31262 (GeneID 318649)	DRSC13216	0.1	0.2		
4	CG6403 (GeneID 43220)	DRSC16033	-0.4	-0.7		
5	Drep4 (GeneID 34734)	DRSC03408	-0.4	0		
6	CG5439 (GeneID 34710)	DRSC02861	-0.3	0		
7	CG9777 (GeneID 32633)	DRSC20208	-0.2	3		
8	bun (GeneID 34665)	DRSC01253	1	0.4		
9	bun (GeneID 34665)	DRSC01255	0.3	0.7		
10	bun (GeneID 34665)	DRSC03500	1.8	2.7		
11	Cnb (GeneID 38258)	DRSC08569	-0.3	-0.4		
12	CG30192 (GeneID 246510)	DRSC03977	-0.6	0.3		
13	CG13293 (GeneID 38695)	DRSC09967	-0.2	-1		
14	Sf3b2 (GeneID 33514)	DRSC00619	6.6	5.8		
15	CG12995 (GeneID 32707)	DRSC19515	-0.3	-0.6		
16	Actbeta (GeneID 43826)	DRSC17185	-0.3	-0.2		
17	Actbeta (GeneID 43826)	DRSC17217	-0.4	-0.4		
18	CG13443 (GeneID 37351)	DRSC06403	-0.3	-0.7		
19	CG14450 (GeneID 40490)	DRSC11707	0.2	0.7		
20	CG31473 (GeneID 318753)	DRSC15443	-0.5	-0.5		
21	Mvd (GeneID 32520)	DRSC20096	-0.2	-0.2		
22	CG31075 (GeneID 43244)	DRSC16016	-0.1	-0.5		
23	Doa (GeneID 43415)	DRSC13892	0.1	-0.5		
24	Doa (GeneID 43415)	DRSC13893	-0.2	-0.1		
25	Doa (GeneID 43415)	DRSC13895	-0.2	-0.3		
26	Doa (GeneID 43415)	DRSC13896	0	-0.5		
27	Doa (GeneID 43415)	DRSC13897	0	0.1		
28	Doa (GeneID 43415)	DRSC16650	0.2	0.2		
29	CG34409 (GeneID 5740854)	DRSC14577	-0.2	-0.3		
30	NKCC (GeneID 40663)	DRSC12140	-0.4	-0.4		
31	NKCC (GeneID 40663)	DRSC12311	0.1	0.1		
32	CG9853 (GeneID 40557)	DRSC12343	-0.3	-0.7	-0.6	-0.2

The list goes on; the last 4 above are carried over.
no.	target	amplicon	z-score, replicate 1	z-score, replicate 2	z-score, replicate 3	z-score, replicate 4
29	CG34409 (GeneID 5740854)	DRSC14577	-0.2	-0.3		
30	NKCC (GeneID 40663)	DRSC12140	-0.4	-0.4		
31	NKCC (GeneID 40663)	DRSC12311	0.1	0.1		
32	CG9853 (GeneID 40557)	DRSC12343	-0.3	-0.7	-0.6	-0.2
33	Cpsf6 (GeneID 38937)	DRSC10781	1.5	1.3		
34	CG4709 (GeneID 34324)	DRSC02772	-0.4	-1.1		
35	Lcp65Ag3 + Lcp65Ag2 + Lcp65Ag1	DRSC11214	-0.3	-0.7		
36	Lcp65Ag3 + Lcp65Ag2 + Lcp65Ag1	DRSC11215	-0.3	-0.6		
37	Kua (GeneID 35300)	DRSC02100	-0.4	-0.5		
38	scro (GeneID 3355151)	DRSC17099	-0.1	-0.5		
39	scro (GeneID 3355151)	DRSC17102	-0.3	-0.1		
40	VhaPPA1-2 (GeneID 41806)	DRSC16176	0	-0.3		
41	Neos (GeneID 38795)	DRSC11235	4.3	3.5		
42	Gr47a (GeneID 36094)	DRSC06221	-0.2	-0.2		
43	CG10931 (GeneID 37024)	DRSC06015	-0.1	0.5		
44	sisA (GeneID 32068)	DRSC20374	-0.3	-0.4		
45	CG17821 (GeneID 37159)	DRSC06696	-0.3	0.5		
46	CG33290 (GeneID 2768993)	DRSC11493	0.1	0.5		
47	CG15800 (GeneID 37763)	DRSC04271	-0.3	0.1		
48	CG17196 (GeneID 43112)	DRSC15189	-0.4	-0.5		
49	Fhos (GeneID 39004)	DRSC08943	0.4	-0.4		
50	Fhos (GeneID 39004)	DRSC10545	-0.3	-0.4		
51	Fhos (GeneID 39004)	DRSC10546	-0.4	-0.6		
52	Fhos (GeneID 39004)	DRSC10547	-0.5	-0.7		
53	S6kII (GeneID 33139)	DRSC20645	-0.3	-1.1		
54	CG30440 (GeneID 35496)	DRSC04775	-0.4	0		
55	CG30440 (GeneID 35496)	DRSC04845	-0.4	-0.2		
56	CG30440 (GeneID 35496)	DRSC04855	-0.4	0		
